Data taken from patent US20060188923A1.
No constants are given. Whether binding was seen depends on the method and setting. Some binding calls cover weakened binding; strength is not graded here.

Sequences of proteins named here, by UniProt entry; tags and fusion partners are left off. A change or cut given only in a name is not applied to a line headed by its entry.
UniProt P13010: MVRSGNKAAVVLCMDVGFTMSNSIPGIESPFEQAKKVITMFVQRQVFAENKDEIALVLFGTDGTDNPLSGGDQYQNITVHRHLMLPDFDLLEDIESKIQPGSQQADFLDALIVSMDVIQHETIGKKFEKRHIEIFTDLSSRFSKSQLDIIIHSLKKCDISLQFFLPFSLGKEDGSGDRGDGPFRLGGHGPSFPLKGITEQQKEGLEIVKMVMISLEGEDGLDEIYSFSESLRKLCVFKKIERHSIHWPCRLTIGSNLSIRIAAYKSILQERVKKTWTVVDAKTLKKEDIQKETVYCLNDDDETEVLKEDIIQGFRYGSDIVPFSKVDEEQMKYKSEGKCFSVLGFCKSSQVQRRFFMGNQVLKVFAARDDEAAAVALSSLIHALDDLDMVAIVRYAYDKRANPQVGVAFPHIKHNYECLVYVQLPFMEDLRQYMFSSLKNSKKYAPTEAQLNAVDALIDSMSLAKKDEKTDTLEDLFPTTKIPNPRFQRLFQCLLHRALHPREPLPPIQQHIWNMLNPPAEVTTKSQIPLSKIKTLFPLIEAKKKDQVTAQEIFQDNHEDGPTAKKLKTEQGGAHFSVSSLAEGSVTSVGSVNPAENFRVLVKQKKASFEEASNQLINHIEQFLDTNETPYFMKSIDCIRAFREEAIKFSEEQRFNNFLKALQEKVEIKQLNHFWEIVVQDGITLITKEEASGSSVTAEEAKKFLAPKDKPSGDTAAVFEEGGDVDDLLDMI

Target: Recombinant Ku80 (rKu80) (human) (UniProt P13010)
Assay: competition ELISA, purified B19 virus as competitor against immobilised rB19ECP

Human parvovirus B19 virus (from UniProt P07299 1-781)
binding: binds
